Measured values taken from the supplement of paper PMC10849652.
The other results are listed elsewhere or left out.

Chains of the proteins cited; added tags and fusions are not shown. Lines headed by an entry give the natural chain unless they say otherwise; changes in a name come on top.
UniProt Q8IWU2: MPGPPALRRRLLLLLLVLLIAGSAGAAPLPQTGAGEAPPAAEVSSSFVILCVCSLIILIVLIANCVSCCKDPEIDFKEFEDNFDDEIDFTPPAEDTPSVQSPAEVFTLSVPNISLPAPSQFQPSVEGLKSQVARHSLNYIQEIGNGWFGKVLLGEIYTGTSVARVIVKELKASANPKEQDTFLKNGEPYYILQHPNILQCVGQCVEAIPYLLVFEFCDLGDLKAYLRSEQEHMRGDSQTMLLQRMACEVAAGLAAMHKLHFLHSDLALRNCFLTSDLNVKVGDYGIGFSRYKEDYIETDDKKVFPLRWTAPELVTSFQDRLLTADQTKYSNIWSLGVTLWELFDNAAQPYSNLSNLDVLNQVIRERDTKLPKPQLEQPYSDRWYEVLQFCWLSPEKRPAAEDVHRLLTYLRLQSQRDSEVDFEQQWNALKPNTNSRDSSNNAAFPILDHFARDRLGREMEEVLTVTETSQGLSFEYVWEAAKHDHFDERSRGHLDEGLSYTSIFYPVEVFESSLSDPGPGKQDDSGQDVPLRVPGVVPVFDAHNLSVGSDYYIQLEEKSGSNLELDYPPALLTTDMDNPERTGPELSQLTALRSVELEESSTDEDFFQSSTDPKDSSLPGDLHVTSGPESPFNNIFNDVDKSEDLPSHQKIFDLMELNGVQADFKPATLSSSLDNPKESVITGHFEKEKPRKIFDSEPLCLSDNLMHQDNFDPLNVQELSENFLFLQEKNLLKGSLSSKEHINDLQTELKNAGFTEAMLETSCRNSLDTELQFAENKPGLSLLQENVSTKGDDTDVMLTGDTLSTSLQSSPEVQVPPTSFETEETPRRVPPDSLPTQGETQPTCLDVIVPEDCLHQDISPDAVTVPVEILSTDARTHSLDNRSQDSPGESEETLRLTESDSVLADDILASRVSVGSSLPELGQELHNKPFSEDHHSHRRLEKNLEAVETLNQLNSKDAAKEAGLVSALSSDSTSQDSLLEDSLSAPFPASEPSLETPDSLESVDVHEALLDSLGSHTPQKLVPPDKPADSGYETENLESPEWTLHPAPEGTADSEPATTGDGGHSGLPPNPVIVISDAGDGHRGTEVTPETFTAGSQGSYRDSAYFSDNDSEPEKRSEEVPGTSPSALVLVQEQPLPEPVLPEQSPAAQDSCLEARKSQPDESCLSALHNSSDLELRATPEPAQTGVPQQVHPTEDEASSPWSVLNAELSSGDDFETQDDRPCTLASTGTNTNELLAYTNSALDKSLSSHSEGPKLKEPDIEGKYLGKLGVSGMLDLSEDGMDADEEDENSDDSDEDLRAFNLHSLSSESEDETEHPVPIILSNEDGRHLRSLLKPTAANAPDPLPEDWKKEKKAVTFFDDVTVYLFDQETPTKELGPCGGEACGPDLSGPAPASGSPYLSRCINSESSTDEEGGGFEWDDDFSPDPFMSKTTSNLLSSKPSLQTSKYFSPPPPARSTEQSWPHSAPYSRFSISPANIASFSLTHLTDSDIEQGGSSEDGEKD
UniProt Q9NT99: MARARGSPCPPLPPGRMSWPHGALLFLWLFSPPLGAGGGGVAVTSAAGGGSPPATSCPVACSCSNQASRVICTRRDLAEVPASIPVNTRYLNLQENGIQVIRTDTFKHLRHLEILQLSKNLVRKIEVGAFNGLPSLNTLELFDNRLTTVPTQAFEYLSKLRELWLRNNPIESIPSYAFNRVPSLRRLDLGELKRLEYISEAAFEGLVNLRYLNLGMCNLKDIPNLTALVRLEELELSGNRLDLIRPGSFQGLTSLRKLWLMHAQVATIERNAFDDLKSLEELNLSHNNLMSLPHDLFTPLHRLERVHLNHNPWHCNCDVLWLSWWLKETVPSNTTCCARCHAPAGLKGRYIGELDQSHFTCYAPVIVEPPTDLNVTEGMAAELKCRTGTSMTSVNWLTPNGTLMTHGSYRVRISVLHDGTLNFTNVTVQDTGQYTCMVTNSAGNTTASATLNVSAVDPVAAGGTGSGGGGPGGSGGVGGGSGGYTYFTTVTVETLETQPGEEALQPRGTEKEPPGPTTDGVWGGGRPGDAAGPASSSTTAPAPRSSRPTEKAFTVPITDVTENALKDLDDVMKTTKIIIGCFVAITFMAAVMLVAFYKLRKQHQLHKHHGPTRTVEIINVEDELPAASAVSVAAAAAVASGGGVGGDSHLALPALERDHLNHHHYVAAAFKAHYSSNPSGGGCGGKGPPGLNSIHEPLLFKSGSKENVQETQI
UniProt Q9Y333: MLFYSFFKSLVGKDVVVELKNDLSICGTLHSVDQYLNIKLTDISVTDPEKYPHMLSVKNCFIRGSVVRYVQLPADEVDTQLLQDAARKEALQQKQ
UniProt O95777: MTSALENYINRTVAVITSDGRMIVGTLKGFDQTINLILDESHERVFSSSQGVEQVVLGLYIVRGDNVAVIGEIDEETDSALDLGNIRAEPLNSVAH
UniProt Q13094: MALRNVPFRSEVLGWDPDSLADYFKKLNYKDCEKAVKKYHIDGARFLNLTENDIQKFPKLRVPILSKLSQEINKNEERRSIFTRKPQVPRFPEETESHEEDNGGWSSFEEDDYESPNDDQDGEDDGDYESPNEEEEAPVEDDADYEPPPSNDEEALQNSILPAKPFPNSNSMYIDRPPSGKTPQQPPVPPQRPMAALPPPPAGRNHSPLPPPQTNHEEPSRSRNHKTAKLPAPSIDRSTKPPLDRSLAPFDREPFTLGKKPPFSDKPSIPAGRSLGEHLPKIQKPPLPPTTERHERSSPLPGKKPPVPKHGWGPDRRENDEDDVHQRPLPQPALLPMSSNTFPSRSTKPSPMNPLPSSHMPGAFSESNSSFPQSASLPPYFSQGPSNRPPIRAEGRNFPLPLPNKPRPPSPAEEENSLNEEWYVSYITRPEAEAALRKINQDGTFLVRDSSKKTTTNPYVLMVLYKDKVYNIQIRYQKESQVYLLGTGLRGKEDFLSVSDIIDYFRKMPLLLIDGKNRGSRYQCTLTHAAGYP
UniProt P36776: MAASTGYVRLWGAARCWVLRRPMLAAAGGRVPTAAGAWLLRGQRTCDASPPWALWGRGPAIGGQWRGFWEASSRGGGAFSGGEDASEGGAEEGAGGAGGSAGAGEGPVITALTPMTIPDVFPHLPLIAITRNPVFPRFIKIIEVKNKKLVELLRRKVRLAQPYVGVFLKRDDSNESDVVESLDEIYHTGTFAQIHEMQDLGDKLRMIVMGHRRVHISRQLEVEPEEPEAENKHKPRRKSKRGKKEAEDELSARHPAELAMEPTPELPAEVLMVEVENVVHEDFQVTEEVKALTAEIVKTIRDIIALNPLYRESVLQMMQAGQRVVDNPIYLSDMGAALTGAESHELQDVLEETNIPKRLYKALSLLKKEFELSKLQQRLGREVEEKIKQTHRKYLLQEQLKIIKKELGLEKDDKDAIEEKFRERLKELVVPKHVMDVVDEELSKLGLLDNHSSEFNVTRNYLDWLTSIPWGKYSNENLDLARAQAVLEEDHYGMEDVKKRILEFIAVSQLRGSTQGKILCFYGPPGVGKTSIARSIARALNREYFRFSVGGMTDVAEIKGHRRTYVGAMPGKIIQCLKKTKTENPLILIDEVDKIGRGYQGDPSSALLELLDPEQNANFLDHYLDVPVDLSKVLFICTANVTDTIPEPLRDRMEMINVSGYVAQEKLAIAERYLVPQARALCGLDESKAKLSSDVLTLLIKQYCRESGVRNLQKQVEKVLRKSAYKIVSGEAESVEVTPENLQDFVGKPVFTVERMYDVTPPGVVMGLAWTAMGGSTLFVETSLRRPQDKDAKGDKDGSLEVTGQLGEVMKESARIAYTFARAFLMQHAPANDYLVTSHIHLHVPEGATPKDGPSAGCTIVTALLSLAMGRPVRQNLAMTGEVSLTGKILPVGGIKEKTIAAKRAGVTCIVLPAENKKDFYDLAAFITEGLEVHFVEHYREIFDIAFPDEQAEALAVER
UniProt Q9C0E8: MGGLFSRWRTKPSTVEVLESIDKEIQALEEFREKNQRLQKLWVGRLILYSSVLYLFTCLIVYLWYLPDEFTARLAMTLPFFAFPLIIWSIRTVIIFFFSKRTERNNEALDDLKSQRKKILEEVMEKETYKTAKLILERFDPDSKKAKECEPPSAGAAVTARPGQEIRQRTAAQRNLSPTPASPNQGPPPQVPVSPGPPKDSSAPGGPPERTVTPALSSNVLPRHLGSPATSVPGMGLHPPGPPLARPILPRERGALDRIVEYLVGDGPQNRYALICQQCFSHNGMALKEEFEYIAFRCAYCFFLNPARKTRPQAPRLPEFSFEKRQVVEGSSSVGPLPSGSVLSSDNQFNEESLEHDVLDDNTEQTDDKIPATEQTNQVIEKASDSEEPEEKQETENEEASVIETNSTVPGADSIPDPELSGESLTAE
UniProt O60294: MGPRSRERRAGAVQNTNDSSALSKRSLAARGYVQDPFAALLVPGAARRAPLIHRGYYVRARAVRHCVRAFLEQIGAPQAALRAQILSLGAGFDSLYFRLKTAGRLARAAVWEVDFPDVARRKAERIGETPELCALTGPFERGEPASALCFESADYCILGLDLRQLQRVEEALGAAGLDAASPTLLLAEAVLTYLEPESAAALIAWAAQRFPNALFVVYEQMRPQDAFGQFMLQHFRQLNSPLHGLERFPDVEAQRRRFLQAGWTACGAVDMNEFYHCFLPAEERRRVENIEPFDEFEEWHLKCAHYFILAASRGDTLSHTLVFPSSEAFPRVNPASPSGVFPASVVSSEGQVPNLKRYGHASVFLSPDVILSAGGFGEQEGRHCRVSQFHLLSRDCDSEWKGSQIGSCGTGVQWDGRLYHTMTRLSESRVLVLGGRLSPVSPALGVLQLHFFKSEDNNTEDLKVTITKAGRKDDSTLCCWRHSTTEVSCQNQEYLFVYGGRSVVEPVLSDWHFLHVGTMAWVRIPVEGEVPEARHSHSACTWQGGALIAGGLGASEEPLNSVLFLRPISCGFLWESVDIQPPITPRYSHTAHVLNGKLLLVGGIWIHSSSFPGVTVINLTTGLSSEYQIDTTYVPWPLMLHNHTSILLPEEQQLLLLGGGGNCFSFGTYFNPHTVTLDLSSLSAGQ
UniProt Q9UHB6: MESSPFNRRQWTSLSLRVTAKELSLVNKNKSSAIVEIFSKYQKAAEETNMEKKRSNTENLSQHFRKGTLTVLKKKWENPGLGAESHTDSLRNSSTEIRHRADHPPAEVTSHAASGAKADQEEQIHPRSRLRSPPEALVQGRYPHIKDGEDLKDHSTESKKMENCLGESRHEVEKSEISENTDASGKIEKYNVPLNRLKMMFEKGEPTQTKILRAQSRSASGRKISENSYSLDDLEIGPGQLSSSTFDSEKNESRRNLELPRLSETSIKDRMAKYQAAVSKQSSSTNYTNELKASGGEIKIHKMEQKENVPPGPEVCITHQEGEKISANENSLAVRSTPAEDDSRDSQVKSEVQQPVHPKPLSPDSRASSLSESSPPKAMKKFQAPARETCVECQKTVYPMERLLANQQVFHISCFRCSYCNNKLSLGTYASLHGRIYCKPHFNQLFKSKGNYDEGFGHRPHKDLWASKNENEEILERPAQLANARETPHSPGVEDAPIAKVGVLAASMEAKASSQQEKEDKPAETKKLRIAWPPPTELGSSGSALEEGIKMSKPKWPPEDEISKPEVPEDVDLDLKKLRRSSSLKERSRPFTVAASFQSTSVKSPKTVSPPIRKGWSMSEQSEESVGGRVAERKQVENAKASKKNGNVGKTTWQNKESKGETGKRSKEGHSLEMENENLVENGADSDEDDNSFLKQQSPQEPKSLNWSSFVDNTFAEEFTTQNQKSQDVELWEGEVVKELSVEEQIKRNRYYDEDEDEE

Tests used:
Assay in all cases: log2 fold change, soluble protein after heating vs DMSO (PISA); higher = thermal stabilisation; K562 lysate, 10 uM; active = over 0.2 and 3.5 SD of the protein, either way, in both replicates (recomputed)
[1] = compound: NCC(=O)Nc1ccc(-n2nc(C(F)(F)F)cc2-c2ccc3c(ccc4ccccc43)c2)cc1
Procedure, shortened: (§1)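 The values are log-two fold changes in thermal stability compared with solvent controls and come from duplicates. They were obtained by TMTpro 16plex LC-MS/MS, with channel sums equalised, on the supernatant after 21,000xg for 90 min. That supernatant came from crude K562 extract at 1 mg/mL protein treated with 10 μM compound for 30 min, heated for 3 min across 48°C-58°C, pooled and brought to 0.5% NP-40 at 4°C.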

vorinostat = compound: O=C(CCCCCCC(=O)Nc1ccccc1)NO [vorinostat]
Procedure, shortened: as §1

silmitasertib = compound: O=C(O)c1ccc2c(c1)nc(Nc1cccc(Cl)c1)c1ccncc12 [silmitasertib]
Procedure, shortened: as §1

[2] = compound: O=C1NC(=O)C(c2cnc3ccccn23)=C1c1cn2c3c(cc(F)cc13)CN(C(=O)N1CCCCC1)CC2
Procedure, shortened: as §1

entospletinib = compound: c1cn2cc(-c3ccc4cn[nH]c4c3)nc(Nc3ccc(N4CCOCC4)cc3)c2n1 [entospletinib]
Procedure, shortened: as §1

Measured: log2 fold change

LMTK2 (UniProt Q8IWU2)
inactive: [1] 0.037 | vorinostat 0.004 | silmitasertib 0.032 | [2] 0.042 | entospletinib -0.018

LRRC4B (UniProt Q9NT99)
inactive: [1] -0.179 | vorinostat 0.055 | silmitasertib 0.059 | [2] 0.005 | entospletinib -0.03

LSM2 (UniProt Q9Y333)
inactive: [1] 0.034 | vorinostat 0.143 | silmitasertib -0.023 | [2] -0.016 | entospletinib 0.012

LSM8 (UniProt O95777)
inactive: [1] -0.052 | vorinostat 0.063 | silmitasertib -0.011 | [2] 0.009 | entospletinib 0.028

LCP2 (UniProt Q13094)
inactive: [1] -0.013 | vorinostat 0.027 | silmitasertib -0.025 | [2] -0.012 | entospletinib -0.035

LONP1 (UniProt P36776)
inactive: [1] 0.015 | vorinostat 0.048 | silmitasertib -0.009 | [2] -0.005 | entospletinib 0.014

LNPK (UniProt Q9C0E8)
inactive: [1] -0.003 | vorinostat 0.141 | silmitasertib -0.033 | [2] -0.008 | entospletinib -0.016

LCMT2 (UniProt O60294)
inactive: [1] 0.021 | vorinostat -0.016 | silmitasertib -0.016 | [2] 0.04 | entospletinib 0.032

LIMA1 isoform 4 (UniProt Q9UHB6)
inactive: [1] 0.005 | vorinostat 0.038 | silmitasertib 0.013 | [2] 0.025 | entospletinib 0.033
